Data on one molecule can be found in PMC5903867.

Assay [1] concerns the target T1, ExbB (Escherichia coli) (UniProt P0ABU7).
T1 sequence: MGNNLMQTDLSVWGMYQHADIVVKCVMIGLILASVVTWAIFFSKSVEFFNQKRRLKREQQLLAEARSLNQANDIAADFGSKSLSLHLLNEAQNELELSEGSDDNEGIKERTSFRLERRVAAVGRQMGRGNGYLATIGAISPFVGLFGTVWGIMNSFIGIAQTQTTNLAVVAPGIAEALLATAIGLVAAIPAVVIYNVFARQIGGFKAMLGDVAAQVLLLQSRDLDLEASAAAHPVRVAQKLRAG
Kind of assay: SDS-PAGE of washed 2D crystals; 2D crystals in lipid bilayers centrifuged, pellet washed twice with buffer, dissolved in SDS sample buffer and run on a polyacrylamide gel; both purified.

In assay [2] the target is T1, ExbB (Escherichia coli). Kind of assay: SDS-PAGE and peptide mass fingerprinting of washed 3D crystals; crystals grown at pH 9.0 collected with a loop, washed with crystallization buffer, dissolved in SDS sample buffer; bands digested with trypsin, MALDI TOF/TOF and/or LC MS/MS, Mascot; both purified.

These are yes or no findings as the source states them, for the method shown. Some binding calls cover weakened binding; strength is not graded here.

B1: ExbD (protein, UniProt P0ABV2 1-141)
chain: MAMHLNENLDDNGEMHDINVTPFIDVMLVLLIIFMVAAPLATVDVKVNLPASTSTPQPRPEKPVYLSVKADNSMFIGNDPVTDETMITALNALTEGKKDTTIFFRADKTVDYETLMKVMDTLHQAGYLKIGLVGEETAKAK
For the molecule B1, the binding result in assay [1] and in assay [2] was “binds” each time.
